According to the supplement of paper PMC8728848:
The other results are listed elsewhere or left out.

Legend:
[1] = target: Neu5Gc(a2-8)Neu5Gc(a2-6)Gal(b1-4)GlcNAc; test: glycan array binding signal (z-score within array); higher = stronger binding; conditions: glycan notation: IUPAC condensed, linker removed
Method in brief: (§1)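 From the Consortium for Functional Glycomics database, 3228 arrays were curated, keeping only those whose protein sequence was available. Binding is given as a within-array Z-score averaged across arrays sharing a protein sequence and across linkers. Negative Z-scores can be read as non-binding.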

[2] = target: Neu5Gc(b2-6)Gal(b1-4)GlcNAc; test: as above; conditions: glycan notation: IUPAC condensed, linker removed
Method in brief: as §1

B1: PX14343F-bfa-562-20-562 (Bacteroides fragilis) (protein)
chain: CDDFLDSFPQDTVTNENFWKSKEDADKVLVDIYASLLPKDAIFFDEAMSDNAYLVWDWWGGAQQVANGSYTTSGEIPTNRWNGSYEVIRKCWFLLEGIEKIEDISEQDKNKIIGETYFMLAYNYYVLTSYFGDVPLVTKTLAIPESKQLVRTPKAEVVDYAINKLKEAAVMLEGLSQEKGRVTADACRFLIARMYLYNGDYSNVLETVKLLEGKYQLYREGDTPYEDLFSGVAENSCEVILSVVCDKRVGEIYTSHGGNGIMLLKGITGEDPYRGVTPSGSLVDAYPMADGRLIHEAGSSYDPKKPYEGRDPRFYQSIVYPTGQIKYLDVETGTVKERLYDPEDPTTVPEHQYNYSQPSATGYMWNKYIDYSVYAMNSVWDCTNDIIVFRYADVLLMKAEALLQTKGESAKEEVCNLIDQLRDRCSCGRVHRENYNSKDELMELLKNERRIELANEGLRYMDLIRWKDAEKNTIVTGVGLTGQMYGAYMRKDGVGKDDKTVDVDNTPRRYIETRYFNASKGYLFPIPQKERDLNPNLTQNPNW
Question: For B1, which “glycan array binding signal (z-score)” value [1] is on record?
Answer: -0.938

Question: And the “glycan array binding signal (z-score)” value [2]?
Answer: 0.514
